PubChem BioAssay AID504786 | Drosophila RNAi Screening Center – 2011
In all, the deposit lists about 21,000 reagents; this is an unselected part of those that have a named target and a result. 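Primary screen; positive scores mean lost reporter signal, so the sign may be inverted from the usual convention.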 Reagent sequences are not shown.

Screen: 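Knock-downs reducing HIF reporter induction by the iron chelator DFO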 (primary screen)
System: Drosophila S2 cells with a stable HIF luciferase reporter
Reagents: long dsRNA against Drosophila genes, about 0.2 µg dsRNA per well of a 384-well plate
Time to read-out: three days of knock-down, then 20 h of DFO before reading
Conditions: desferrioxamine (DFO) at 100 µM, an iron chelator that mimics hypoxia, for 20 h
Detection: 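Firefly luciferase driven by the mouse ldh-a hypoxia-response element, measured after 20 h of 100 µM DFO; z-scores per plate, higher means more signal lost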
Direction: z-score: higher = stronger loss of HIF reporter signal

no.	target gene	DRSC id	z-score, replicate 1	z-score, replicate 2
1	Trissin	DRSC14994	-0.2	0
2	CG3500	DRSC04379	-0.3	-0.4
3	Bet1	DRSC10088	1.9	0.2
4	CG42789	DRSC13793	-0.2	-0.4
5	CG10710	DRSC09784	-0.2	0.8
6	sced	DRSC04990	-0.2	-0.7
7	Kdm3	DRSC16393	-0.3	-0.7
8	CG7514	DRSC08597	-0.3	-0.7
9	pelo	DRSC03588	0.6	-0.1
10	CG6470	DRSC19994	-0.1	-0.5
11	CG31465	DRSC16090	-0.2	-0.3
12	pch2	DRSC14368	-0.3	0.5
13	ZnT77C	DRSC11766	-0.3	-0.4
14	ZnT77C	DRSC11767	-0.2	-0.5
15	CG12057	DRSC17797	-0.1	0.2
16	CG1894	DRSC15396	-0.3	-0.4
17	LManIV	DRSC03222	-0.3	-0.3
18	Whamy	DRSC14574	-0.4	-0.6
19	fry	DRSC08993	0.1	-0.1
20	fry	DRSC10172	-0.3	-0.4
21	fry	DRSC10709	-0.3	-0.4
22	fry	DRSC10712	0.1	1
23	CG13492	DRSC04137	-0.2	-0.5
24	CG14621	DRSC20635	-0.5	-0.1

A few values from the list:
Value of CG13492 [DRSC04137] in “z-score, replicate 1”: -0.2
Under “z-score, replicate 2”, sced [DRSC04990] is entered as -0.7
For “z-score, replicate 1”, ZnT77C [DRSC11767] reads -0.2
fry [DRSC10709], z-score, replicate 2 → -0.4
Entry for CG14621 [DRSC20635] under “z-score, replicate 1”: -0.5
Kdm3 [DRSC16393], z-score, replicate 2: -0.7

More entries:
no.	target gene	DRSC id	z-score, replicate 1	z-score, replicate 2
25	Grasp65	DRSC10917	-0.3	-0.4
26	CG7668	DRSC10901	-0.3	-0.5
27	Sodq	DRSC15924	-0.2	-0.6
28	ProtA	DRSC03372	-0.3	-0.2
29	GstT2	DRSC06244	-0.3	-0.6
30	CG3746	DRSC04412	-0.4	-0.4
31	CG32365	DRSC10040	-0.2	-0.2
32	CG32365	DRSC10041	4.7	3.7
33	CG32365	DRSC10977	2.1	1.8
34	CG2712	DRSC18589	-0.3	-0.2
35	Cdk8	DRSC11113	-0.1	0.9
36	CG14696	DRSC14919	0.1	-0.1
37	BomT3	DRSC13537	-0.4	-0.2
38	BomT3	DRSC15871	-0.4	-0.1
39	alpha-Est9	DRSC12621	-0.4	-0.3
40	CG31633	DRSC02275	-0.3	-0.3
41	hay	DRSC11354	-0.1	0.2
42	CG15873	DRSC04277	0.1	-0.7
43	CG14717	DRSC14940	-0.3	-0.5
44	GlcAT-P	DRSC10603	-0.2	-0.4
45	GlcAT-P	DRSC10604	0.3	0.1
46	lectin-21Cb	DRSC00355	-0.2	-0.7
47	CG5096	DRSC02813	-0.4	0.1
48	CG6664	DRSC10690	-0.3	-0.7
49	fws	DRSC02969	-0.2	-0.5
50	SdhAL	DRSC10539	-0.2	-0.4
51	CG15705	DRSC06576	-0.5	-0.7
52	CG33267	DRSC09120	-0.2	-0.5
53	ADD1	DRSC07135	-0.3	-0.3
54	Atat	DRSC10392	-0.2	-0.4
55	CG3739	DRSC15510	-0.7	-0.3
56	CG33330 (retired record)	DRSC13053	2.9	2.7
57	CG33330 (retired record)	DRSC15495	-0.3	-0.3
